Counter-ions that a name gives are not always drawn. The list shows a part of the results. Repeats in this data set agree poorly, so a single value says little.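 Human embryonic kidney cells were transiently transfected with a plasmid bearing a Renilla luciferase gene under the HSV-TK promoter. This first-round screen tests roughly ten thousand compounds for ones that increase reporter output.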

The assay relates to HEK 293FT. In words: log relative Renilla luciferase luminescence (reporter expression vs reference, reference not stated) (log (base not stated)); higher = higher recombinant reporter expression. Conditions: 10 µM; time after transfection 48 h.
Turning to `CN(C)CCCSC(=N)N` [Dimaprit dihydrochloride], the log was -0.0359.
Take `O=C(NCCN1CCOCC1)c1ccc(Cl)cc1` [Moclobemide]: the log came out at 0.0725.
Then `CN(C/C=C/c1ccccc1)Cc1cccc2ccccc12` [Naftifine hydrochloride], with 0.0079; and `CN1C(=O)OC(C)(C)C1=O` [Trimethadione], with 0.0179; and `CC(=O)CCCCn1c(=O)c2c(ncn2C)n(C)c1=O` [Pentoxifylline], with 0.136.
Then `OCCN1CCN(CCCN2c3ccccc3C=Cc3ccccc32)CC1` [Opipramol dihydrochloride], with 0.165.
The same measure for `CC(C)NC[C@H](O)COc1cccc2ccccc12` [(S)-propranolol hydrochloride]: 0.102.
As for `CCCCNc1cc(C(=O)O)cc(S(N)(=O)=O)c1Oc1ccccc1` [Bumetanide], the log turned out to be 0.157.
Then `CNC(=O)c1c(I)c(C(=O)NCC(=O)Nc2c(I)c(C(=O)O)c(I)c(C(=O)NCCO)c2I)c(I)c(N(C)C(C)=O)c1I` [Ioxaglic acid], with 0.105; and `CC(=O)Oc1ccccc1C(=O)Oc1ccccc1C(=O)O` [Acetylsalicylsalicylic acid], with -0.0311; and `CC(C)n1c(/C=C/C(O)CC(O)CC(=O)O)c(-c2ccc(F)cc2)c2ccccc21` (stereo unspecified) [Fluvastatin sodium salt], with -0.0369.
Then `N=C(N)NCc1cccc(I)c1` [Iobenguane sulfate], with 0.0878; and `C[C@H]1NC(=O)NC1=O` [Methylhydantoin-5-(D)], with -0.0488; and `Cc1ccnc(NS(=O)(=O)c2ccc(N)cc2)n1` [Sulfamerazine], with 0.205.
Then `NCCCC(O)(P(=O)(O)O)P(=O)(O)O` [Alendronate sodium], with -0.108; and `Nc1ccc(S(=O)(=O)Nc2cnc3ccccc3n2)cc1` [Sulfaquinoxaline sodium salt], with -0.102; and `CNC[C@H](O)[C@@H](O)[C@H](O)[C@H](O)CO` [Meglumine], with 0.0842.
Turning to `CN(C)CCn1nnnc1SCC1=C(C(=O)O)N2C(=O)[C@@H](NC(=O)Cc3csc(N)n3)[C@H]2SC1` [Cefotiam hydrochloride], the log was -0.00821.
Then `CC(=O)N[C@@H](CS)C(=O)O` [Acetylcysteine], with -0.318; and `CC(=O)O[C@H]1C[C@@]2(C)[C@@H](C[C@@H](O)[C@H]3[C@@]4(C)CC[C@@H](O)[C@@H](C)[C@@H]4CC[C@@]32C)/C1=C(\CCC=C(C)C)C(=O)O` [Fusidic acid sodium salt], with -0.0661.
The same measure for `CCN(CC)CCOC(=O)c1ccc(N)cc1` [Procaine hydrochloride]: 0.0484.
Take `Cc1c(C)c2c(c(C)c1O)CCC(C)(C(=O)O)O2` (stereo unspecified) [Trolox]: the log was 0.0324.
Then `CC[C@H](C)C(=O)O[C@H]1C[C@@H](C)C=C2C=C[C@H](C)[C@H](CC[C@@H]3C[C@@H](O)CC(=O)O3)[C@H]21` [Lovastatin], with -0.156.
The same measure for `CC(C)OC(=O)C(C)(C)Oc1ccc(C(=O)c2ccc(Cl)cc2)cc1` [Fenofibrate]: 0.0424.
The same measure for `Cc1c(O)c(=O)n(-c2ccccc2)n1C` [Antipyrine, 4-hydroxy]: -0.00375.
Regarding `Cc1cc2c(s1)Nc1ccccc1N=C2N1CCN(C)CC1` [Olanzapine], the log was -0.193.
Take `CC(N)CCCC(C)(C)O` (stereo unspecified) [Heptaminol hydrochloride]: the log was 0.0404.
The same measure for `CN1CCCN=C1/C=C/c1cccc(O)c1` [Oxantel pamoate]: 0.105; for `O=C(O)c1cc(/N=N/c2ccc(S(=O)(=O)Nc3ccccn3)cc2)ccc1O` [Sulfasalazine]: -0.275.
Then `CN/C(=N\CCSCc1nc[nH]c1C)NC#N` [Cimetidine], with 0.0638.
The same measure for `CCc1cccc(CC)c1NC(=O)CN(CC(=O)O)CC(=O)O` [Etifenin]: 0.0404; for `CCCCc1ccc2[nH]c(NC(=O)OC)nc2c1` [Parbendazole]: 0.0739; for `Nc1ncnc2c1ncn2C1OC(COP(=O)(O)O)C(O)C1O` (stereo unspecified) [Adenosine 5'-monophosphate monohydrate]: 0.11.
As for `CN1CCCN(C(c2ccccc2)c2ccc(Cl)cc2)CC1` (stereo unspecified) [Homochlorcyclizine dihydrochloride], the log was 0.0787.
For `C[C@@H]1C[C@H]2[C@@H]3CCC4=CC(=O)C=C[C@]4(C)[C@@]3(Cl)[C@@H](O)C[C@]2(C)[C@@]1(OC(=O)c1ccco1)C(=O)CCl` [Mometasone furoate], the log was -0.0206.
Turning to `CC1(C)S[C@@H]2[C@H](NC(=O)[C@H](N)c3ccccc3)C(=O)N2[C@H]1C(=O)O` [Ampicillin trihydrate], the log was found to be 0.0903.
On to `O=c1n(CCCN2CCN(c3cccc(Cl)c3)CC2)nc2ccccn12` [Trazodone hydrochloride], for which the log is -0.271.
The same measure for `COc1ccc2cc([C@H](C)C(=O)O)ccc2c1` [Naproxen]: 0.0949.
Then `Nc1cc(N2CCCCC2)nc(N)[n+]1[O-]` [Minoxidil], with -0.0407.
For `O=C(O)c1ccccc1OP(=O)(O)O` [Fosfosal], the log is -0.0916.
The same measure for `C/C=C(/C(=C/C)c1ccc(O)cc1)c1ccc(O)cc1` [Dienestrol]: -0.302; for `Cc1ncc([N+](=O)[O-])n1CC(C)O` (stereo unspecified) [Secnidazole]: -0.377; for `CC(=O)O[C@H]1C(=O)[C@@]2(C)[C@H]([C@H](OC(=O)c3ccccc3)[C@]3(O)C[C@H](OC(=O)[C@H](O)[C@@H](NC(=O)c4ccccc4)c4ccccc4)C(C)=C1C3(C)C)[C@]1(OC(C)=O)CO[C@@H]1C[C@@H]2O` [Paclitaxel]: 0.26.
For the molecule `CCCN(CCC)CCc1cccc2c1CC(=O)N2` [Ropinirole HCl], the log was -0.0898.
The same measure for `Cc1nc2ccccn2c(=O)c1CCN1CCC(C(=O)c2ccc(F)cc2)CC1` [Pirenperone]: 0.00934.
The same measure for `O=C(CCNNC(=O)c1ccncc1)NCc1ccccc1` [Nialamide]: 0.157; for `N/C(=N\C(=O)c1nc(Cl)c(N)nc1N)NCc1ccccc1` [Benzamil hydrochloride]: 0.0949.
The same measure for `NC(=O)c1cnccn1` [Pyrazinamide]: 0.0695; for `CC[C@@H]1C(=O)OC[C@@H]1Cc1cncn1C` [Pilocarpine nitrate]: 0.104; for `CC(C)NC[C@@H](O)COc1ccc(CC(N)=O)cc1` [(R)-(+)-Atenolol]: -0.117.
As to `NS(=O)(=O)c1cc2c(cc1C(F)(F)F)NCNS2(=O)=O` [Hydroflumethiazide], the log came out at 0.0878.
The same measure for `CS(=O)(=O)OCCCCOS(C)(=O)=O` [Busulfan]: -0.0188; for `Cc1c(NC(=O)c2cccnc2)c(=O)n(-c2ccccc2)n1C` [Nifenazone]: 0.149; for `COc1cccc2c1C(=O)c1c(O)c3c(c(O)c1C2=O)C[C@@](O)(C(C)=O)C[C@@H]3O[C@H]1C[C@H](N)[C@H](O)[C@H](C)O1` [Daunorubicin hydrochloride]: -0.0312.
The same measure for `C=CC1=C(C(=O)O)N2C(=O)[C@@H](NC(=O)/C(=N\O)c3csc(N)n3)[C@H]2SC1` [Cefdinir]: 0.171; for `Cc1cn([C@H]2C=C[C@@H](CO)O2)c(=O)[nH]c1=O` [Stavudine]: -0.015.
The same measure for `CC(=O)NS(=O)(=O)c1ccc(N)cc1` [Sulfacetamide sodic hydrate]: 0.0484; for `CCN(CC)CC(=O)Nc1c(C)cccc1C` [Lidocaïne hydrochloride]: 0.0695.
As to `CC(=O)OCC(=O)[C@@]12OC(C)(C)O[C@@H]1C[C@H]1[C@@H]3C[C@H](F)C4=CC(=O)C=C[C@]4(C)[C@@]3(F)[C@@H](O)C[C@@]12C` [Fluocinonide], the log is 0.00816.
The same measure for `c1ccc2c(CC3=NCCN3)cccc2c1` [Naphazoline hydrochloride]: 0.00934; for `CO[C@@H]1[C@@H](O[C@@H]2O[C@H](C)[C@@H](O[C@H]3C[C@@](C)(O)[C@@H](OC(=O)CC(C)C)[C@H](C)O3)[C@H](N(C)C)[C@H]2O)[C@@H](CC=O)C[C@@H](C)[C@@H](O)/C=C/C=C/C[C@@H](C)OC(=O)C[C@H]1OC(C)=O` [Josamycin]: 0.0822.
As for `CC(=O)CC(c1ccccc1)c1c(O)c2ccccc2oc1=O` (stereo unspecified) [Warfarin], the log was -0.185.
Then `OCCN(CCO)c1nc(N2CCCCC2)c2nc(N(CCO)CCO)nc(N3CCCCC3)c2n1` [Dipyridamole], with -0.0818; and `O=C(O)c1ccccc1C(=O)Nc1ccc(S(=O)(=O)Nc2nccs2)cc1` [Phthalylsulfathiazole], with 0.0486.
Then `CN(c1nccc(=O)[nH]1)C1CCN(c2nc3ccccc3n2Cc2ccc(F)cc2)CC1` [Mizolastine], with -0.0838; and `CN1CCN(C(c2ccccc2)c2ccccc2)CC1` [Cyclizine hydrochloride], with 0.0967.
The same measure for `N[C@@H](Cc1cc(I)c(Oc2ccc(O)c(I)c2)c(I)c1)C(=O)O` [Liothyronine]: 0.00849; for `CN1CCC(=C2c3ccccc3Sc3ccccc32)CC1` [Pimethixene maleate]: 0.181.
For `C#C[C@]1(O)CC[C@H]2[C@@H]3CCC4=CCCC[C@@H]4[C@H]3CC[C@@]21C` [Lynestrenol], the log is -0.614.
The same measure for `C[C@H](CCC(=O)O)[C@H]1CC[C@H]2[C@@H]3[C@@H](O)C[C@@H]4C[C@H](O)CC[C@]4(C)[C@H]3CC[C@]12C` [Urosiol]: 0.00719.
Then `O=C(CCCN1CCN(c2ccccn2)CC1)c1ccc(F)cc1` [Azaperone], with 0.115; and `NC[C@@H]1O[C@@H](O[C@H]2[C@H](O)[C@@H](O[C@H]3O[C@H](CO)[C@@H](O)[C@H](N)[C@H]3O)[C@H](N)C[C@@H]2N)[C@@H](O)[C@H](O)[C@H]1O` [Kanamycin A sulfate], with -0.124.
Turning to `CC1CC(OC(=O)c2ccccc2O)CC(C)(C)C1` (stereo unspecified) [Homosalate], the log was 0.157.
The same measure for `COC(=O)C1=C(C#N)NC(C)=C(C(=O)OC(C)C)C1c1cccc([N+](=O)[O-])c1` (stereo unspecified) [Nilvadipine]: 0.0914; for `CN1CCN(C2=Nc3ccccc3Oc3ccc(Cl)cc32)CC1` [Loxapine succinate]: 0.149; for `N=C(NCCCCCCNC(=N)NC(=N)Nc1ccc(Cl)cc1)NC(=N)Nc1ccc(Cl)cc1` [Chlorhexidine]: 0.125.

The values above are taken from the supplement of paper PMC7024190.
